Primary screen of a compound library

By UniProt entry, the sequences of proteins in these tests, tags left out.
UniProt P9WPC5, whole entry: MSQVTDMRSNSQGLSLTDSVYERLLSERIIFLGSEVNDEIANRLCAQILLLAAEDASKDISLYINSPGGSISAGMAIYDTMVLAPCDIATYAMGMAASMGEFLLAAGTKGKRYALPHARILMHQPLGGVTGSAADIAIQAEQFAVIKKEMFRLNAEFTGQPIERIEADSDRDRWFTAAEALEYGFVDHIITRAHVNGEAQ
UniProt P9WPC3, whole entry partner: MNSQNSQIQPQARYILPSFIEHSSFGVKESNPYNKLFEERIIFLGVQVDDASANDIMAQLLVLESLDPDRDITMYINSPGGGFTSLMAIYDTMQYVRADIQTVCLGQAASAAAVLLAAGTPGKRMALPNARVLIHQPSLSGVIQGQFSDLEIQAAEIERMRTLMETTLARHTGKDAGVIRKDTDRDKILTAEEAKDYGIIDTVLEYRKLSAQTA
UniProt P9WFT3, whole entry: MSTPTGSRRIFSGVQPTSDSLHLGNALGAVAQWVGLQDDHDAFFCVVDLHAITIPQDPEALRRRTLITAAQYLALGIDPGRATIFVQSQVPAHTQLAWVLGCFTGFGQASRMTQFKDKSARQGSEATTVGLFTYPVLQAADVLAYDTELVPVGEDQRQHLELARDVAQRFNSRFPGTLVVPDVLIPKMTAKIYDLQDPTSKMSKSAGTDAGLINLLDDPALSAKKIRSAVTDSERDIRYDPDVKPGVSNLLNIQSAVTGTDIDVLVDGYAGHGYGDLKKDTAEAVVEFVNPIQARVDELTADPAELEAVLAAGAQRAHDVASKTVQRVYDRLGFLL

Values are the deposited “Percent Effect”, in %.
How 0% and 100% were set is not recorded. Most values in the screen are low, and negative values occur.
The compounds are a random part of those screened.

ClpP1P2: 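ClpP1P2, Mycobacterium tuberculosis (UniProt P9WPC5 and UniProt P9WPC3). Protease assay of ClpP1P2, read by the AMC dye that it sets free. Tested at 50 µM. Higher reads as stronger inhibition, judged from the few compounds that gave an IC50. Most other retested compounds had strongly negative values. Of about 69,000 compounds tested this way, about 10 (0.015%) reached 50% or more in at least one test.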
MtTrpRS: 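Tryptophan-tRNA ligase, Mycobacterium tuberculosis (UniProt P9WFT3). Enzyme assay of tryptophanyl-tRNA synthetase; the read-out is not stated. Tested at 10 µM. Higher most likely means stronger inhibition; the record gives no direction and few retests gave an IC50. About 65,000 compounds were tested under these conditions; 0.098% (about 64) showed 50% or more at least once.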

{"compound": "O=S(=O)(NCc1ccccc1)Nc1ccc(-n2ccnc2)cc1", "ClpP1P2": 12.64, "MtTrpRS": 6.441}
{"compound": "Cc1ccc(C(C(=O)O)N2CCCN(Cc3ccccn3)CC2)c(F)c1", "stereo": "configuration not stated", "ClpP1P2": -0.3849, "MtTrpRS": 1.944}
{"compound": "Cc1ccc(C(=O)N2CCC3(CC2)CC(N2CCOCC2)C3)cc1", "ClpP1P2": 5.149, "MtTrpRS": 2.824}
{"compound": "CC(C)n1ccnc1C1CCN(C(=O)C2COc3ccccc3O2)CC1", "stereo": "configuration not stated", "ClpP1P2": -17.34, "MtTrpRS": 1.754}
{"compound": "CC(C)n1ccnc1C1CCN(C(=O)c2ccccn2)CC1", "ClpP1P2": -8.177, "MtTrpRS": -7.174}
{"compound": "c1ccc(N2CCOC3(CCCN(c4ncccn4)C3)C2)nc1", "stereo": "configuration not stated", "ClpP1P2": 5.302}
{"compound": "Cc1cccc(C(=O)NCCNCC2CNc3ccnn3C2)c1", "stereo": "configuration not stated", "ClpP1P2": -15.43, "MtTrpRS": -3.263}
{"compound": "CC[C@H](CO)NC(=O)c1coc(COc2cccc(F)c2F)n1", "ClpP1P2": -6.697, "MtTrpRS": 0.4724}
{"compound": "CC(C)CN1CCCn2nc(CNC(=O)CCCc3cn[nH]c3)cc2C1", "ClpP1P2": -9.762, "MtTrpRS": -2.131}
{"compound": "COCC(C)NC(=O)c1nnn(-c2ccc(OC)cc2)n1", "stereo": "configuration not stated", "ClpP1P2": 5.908, "MtTrpRS": -4.117}
{"compound": "O=C(N1CC(c2cccnc2)C1)C1(c2ccc(F)cc2)CCOCC1", "ClpP1P2": 0.2326, "MtTrpRS": 0.2463}
{"compound": "COc1ccc(-c2cc(C(=O)NCCC(C)C)n(C)n2)cc1", "ClpP1P2": -12.11, "MtTrpRS": 2.184}
{"compound": "CCOC(=O)c1coc(N2CCN(Cc3cccc(OC)c3)C(=O)C2)n1", "ClpP1P2": 5.668, "MtTrpRS": 3.659}
{"compound": "CCC(CO)NC(=O)Cc1ccc(NC(=O)CC2=CCCCC2)cc1", "stereo": "configuration not stated", "ClpP1P2": -10.84, "MtTrpRS": -12.35}
{"compound": "C1CN(CCN2CCOCC2)CCN1", "ClpP1P2": 2.382}
{"compound": "CS(=O)(=O)N1CCC(CNc2c(Cl)cccc2C#N)CC1", "ClpP1P2": -25.48, "MtTrpRS": 6.51}
{"compound": "CCCc1nc(CN2CCOC(CNc3cccnn3)C2)cs1", "stereo": "configuration not stated", "ClpP1P2": 7.454, "MtTrpRS": -2.426}
{"compound": "CCN(CC)CCNC(=O)c1cnc(-c2ccccc2)nc1", "ClpP1P2": 3.393, "MtTrpRS": 0.6156}
{"compound": "O=C(NCCO)Nc1ccc(Cl)cc1-n1cccc1", "ClpP1P2": -2.15, "MtTrpRS": 1.077}
{"compound": "CC(=O)Nc1cc(C(=O)N2CCOCC2c2ccc(C)o2)ccc1F", "stereo": "configuration not stated", "ClpP1P2": -10.62, "MtTrpRS": -1.776}
{"compound": "Cn1cccc1C(O)CNC(=O)c1ccc(F)c(F)c1", "stereo": "configuration not stated", "ClpP1P2": -7.105, "MtTrpRS": -1.633}
{"compound": "Cc1cnc(N2CCC3(CC2)COCCN(C(C)C)C3)nc1", "ClpP1P2": -1.705, "MtTrpRS": -4.007}
{"compound": "Cc1cc(NC(=O)N2CCN(c3nc(C)c(C)s3)CC2)no1", "ClpP1P2": -7.183, "MtTrpRS": -6.004}
{"compound": "O=S(=O)(CCNCc1cc(O)c2cc(F)ccc2n1)N1CCCC1", "ClpP1P2": -1.727, "MtTrpRS": -1.987}
{"compound": "Cc1nn(C)c(C)c1CCn1cncc1-c1ccc2c(c1)CC(C)N2C", "stereo": "configuration not stated", "ClpP1P2": -43.22, "MtTrpRS": -8.045}
{"compound": "CC(Cn1cccn1)n1cnc2ccc(F)cc2c1=O", "stereo": "configuration not stated", "ClpP1P2": -20.76, "MtTrpRS": 0.8051}
{"compound": "CN(C(=O)C1(C#N)CCCCC1)c1nccs1", "ClpP1P2": -6.254, "MtTrpRS": -2.825}
{"compound": "CCC(C)(CC(=O)OC)NCc1c(C)noc1C", "stereo": "configuration not stated", "ClpP1P2": -5.395, "MtTrpRS": -3.536}
{"compound": "OC(CNCCn1cccn1)c1cccc(F)c1", "stereo": "configuration not stated", "ClpP1P2": -3.388, "MtTrpRS": -6.615}
{"compound": "CC1(C(=O)NCc2cccnc2Oc2ccc(F)cc2F)CCCNC1", "stereo": "configuration not stated", "ClpP1P2": 2.588, "MtTrpRS": 0.4461}
{"compound": "O=C(c1cccc(O)c1)N1CCN(Cc2nnc(C3CCC3)o2)CC1", "ClpP1P2": 2.462, "MtTrpRS": 5.146}

The last 4 entries again:

| Compound | ClpP1P2 | MtTrpRS |
|---|---|---|
| `CCC(C)(CC(=O)OC)NCc1c(C)noc1C` (configuration not stated) | -5.395% | -3.536% |
| `OC(CNCCn1cccn1)c1cccc(F)c1` (configuration not stated) | -3.388% | -6.615% |
| `CC1(C(=O)NCc2cccnc2Oc2ccc(F)cc2F)CCCNC1` (configuration not stated) | 2.588% | 0.4461% |
| `O=C(c1cccc(O)c1)N1CCN(Cc2nnc(C3CCC3)o2)CC1` | 2.462% | 5.146% |

Measurements from “University of Dundee, Small-Polar-MMV Screening Library” (2021), ChEMBL document CHEMBL3988442.